Results taken from patent US6946547B2, “Ecstasy-class analogs and use of same in detection of ecstasy-class compounds” (Microgenics Corporation, priority 2000, dated 2005).
Marks after values point to notes of the source that are not given here.

Key:
[1] = test system: Antibody 1A9; assay: CEDIA ecstasy-class assay on a Hitachi clinical chemistry analyzer; format: binding, mouse
Protocol: Antibodies obtained using any of the aforementioned techniques are screened or purified not only for their ability to react with an ecstasy-class compound, but also for a low cross-reactivity with potential interfering substances. “Cross reactivity” is determined in a quantitative immunoassay by establishing a standard curve using known dilutions of the target analyte, e.g., MDMA. […] The cross-reactivity is the apparent concentration divided by the actual concentration multiplied by 100. […] Alternatively, the cross-reactivity can be determined in the same type of immunoassay in which the antibody will ultimately be used.
• a. Preparation of Reagents:
Enzyme Donor (ED) Reagent was prepared as a liquid reagent with the components below:
Assay Protocol: The assay was performed on a Hitachi clinical chemistry analyzer as follows: Sample was pipetted into a reaction cuvette. EA reagent, containing antibody, was added. The mixture was incubated at 37° C. for approximately 5 minutes. ED reagent containing […] was subsequently added, and the incubation continued for 4 minutes at 37° C. The rate of substrate hydrolysis was measured photometrically at 570 nm (with subtraction of background at 660 nm) from four to five minutes after ED addition.

[2] = Standard CEDIA DAU Amphetamines assay, Hitachi 911
[3] = test system: 1A9 anti-ecstasy antibody; assay: Enhanced CEDIA DAU Amphetamines assay (1A9 antibody and ED28-(MB-MDA)2 added)
[4] = Antibody 1A9, Experiment 1, concentration 300 ng/mL
[5] = Antibody 1A9, Experiment 1, concentration 300 ng/mL, from MDMA standard curve
[6] = Antibody 1A9, Experiment 1, concentration 1000 ng/mL
[7] = Antibody 1A9, Experiment 1, concentration 1000 ng/mL, from MDMA standard curve
[8] = Antibody 1A9, Experiment 1, concentration 5000 ng/mL
[9] = Antibody 1A9, Experiment 1, concentration 5000 ng/mL, from MDMA standard curve
[10] = Antibody 1A9, Experiment 2, concentration 600,000 ng/mL
[11] = Antibody 1A9, Experiment 2, concentration 1,000,000 ng/mL

Compound: CCC(N)Cc1ccc2c(c1)OCO2 (stereo not drawn) [BDB, 1-(3,4-methylenedioxyphenyl)-2-butanamine]
- Rate [1, 4]: 169 MAU/min
- Apparent Dose [1, 5]: 100 ng/mL
- Rate [1, 6]: 465 MAU/min
- Apparent Dose [1, 7]: 500* ng/mL
- Rate [1, 8]: 772 MAU/min
- Apparent Dose [1, 9]: 1490 ng/mL

Compound: CNC(C)Cc1ccc(O)c(OC)c1 (stereo not drawn) [HMMA, 4-hydroxy-3-methoxymethamphetamine]
- Rate [1, 4]: 80 MAU/min
- Apparent Dose [1, 5]: 0 ng/mL

Compound: CCC(Cc1ccc2c(c1)OCO2)NC (stereo not drawn) [MBDB, N-methyl-1-(3,4-methylenedioxyphenyl)-2-butanamine]
- Rate [1, 4]: 143 MAU/min
- Apparent Dose [1, 5]: 70 ng/mL
- Rate [1, 6]: 341 MAU/min
- Apparent Dose [1, 7]: 290 ng/mL
- Rate [1, 8]: 695 MAU/min
- Apparent Dose [1, 9]: 890 ng/mL

Compound: CC(N)Cc1ccc2c(c1)OCO2 (stereo not drawn) [MDA, 3,4-methylenedioxyamphetamine]
- Standard CEDIA Amphetamines Mean Rates ([2]; 150 ng/mL): 155.6 mAU/min
- Standard CEDIA Amphetamines Mean Rates ([2]; 300 ng/mL): 156.7 mAU/min
- Standard CEDIA Amphetamines Mean Rates ([2]; 500 ng/mL): 157.9 mAU/min
- Standard CEDIA Amphetamines Mean Rates ([2]; 700 ng/mL): 159.1 mAU/min
- Standard CEDIA Amphetamines Mean Rates ([2]; 1000 ng/mL): 160.7 mAU/min
- Enhanced CEDIA Amphetamines Mean Rates ([3]; 150 ng/mL): 228.4 mAU/min
- Enhanced CEDIA Amphetamines Mean Rates ([3]; 300 ng/mL): 257.3 mAU/min
- Enhanced CEDIA Amphetamines Mean Rates ([3]; 500 ng/mL): 300.3 mAU/min
- Enhanced CEDIA Amphetamines Mean Rates ([3]; 700 ng/mL): 343.1 mAU/min
- Enhanced CEDIA Amphetamines Mean Rates ([3]; 1000 ng/mL): 388.0 mAU/min
- Rate [1, 4]: 228 MAU/min
- Apparent Dose [1, 5]: 160 ng/mL
- Rate [1, 6]: 573 MAU/min
- Apparent Dose [1, 7]: 680 ng/mL
- Rate [1, 8]: 807 MAU/min
- Apparent Dose [1, 9]: 3160 ng/mL

Compound: CCNC(C)Cc1ccc2c(c1)OCO2 (stereo not drawn) [MDEA, N-ethyl-3,4-methylenedioxyamphetamine]
- Rate [1, 4]: 446 MAU/min
- Apparent Dose [1, 5]: 460* ng/mL
- Rate [1, 6]: 842 MAU/min
- Apparent Dose [1, 7]: 4840 ng/mL
- Rate [1, 8]: 860 MAU/min
- Apparent Dose [1, 9]: >5000 ng/mL

Compound: CNC(C)Cc1ccc2c(c1)OCO2 (stereo not drawn) [MDMA, 3,4-methylenedioxymethamphetamine]
- Rate [1, 4]: 349 MAU/min
- Rate [1, 6]: 762 MAU/min
- Rate [1, 8]: 845 MAU/min
- Rate ([1]; Antibody 1A9, Experiment 2, concentration 300 ng/mL): 378.6 MAU/min
- Rate ([1]; Antibody 1A9, Experiment 2, concentration 1000 ng/mL): 840.3 MAU/min
- Rate ([1]; Antibody 1A9, Experiment 2, concentration 5000 ng/mL): 990.8 MAU/min

Compound: CN[C@@H](C)Cc1ccccc1 [Methamphetamine]
- Standard CEDIA Amphetamines Mean Rates ([2]; 150 ng/mL): 187.2 mAU/min
- Standard CEDIA Amphetamines Mean Rates ([2]; 300 ng/mL): 223.4 mAU/min
- Standard CEDIA Amphetamines Mean Rates ([2]; 500 ng/mL): 262.3 mAU/min
- Standard CEDIA Amphetamines Mean Rates ([2]; 700 ng/mL): 289.9 mAU/min
- Standard CEDIA Amphetamines Mean Rates ([2]; 1000 ng/mL): 320.9 mAU/min
- Enhanced CEDIA Amphetamines Mean Rates ([3]; 150 ng/mL): 233.7 mAU/min
- Enhanced CEDIA Amphetamines Mean Rates ([3]; 300 ng/mL): 271.4 mAU/min
- Enhanced CEDIA Amphetamines Mean Rates ([3]; 500 ng/mL): 308.3 mAU/min
- Enhanced CEDIA Amphetamines Mean Rates ([3]; 700 ng/mL): 334.6 mAU/min
- Enhanced CEDIA Amphetamines Mean Rates ([3]; 1000 ng/mL): 360.8 mAU/min
- Apparent Dose [1, 10]: 337 ng/mL
- Rate [1, 10]: 417.4 MAU/min

Compound: CC(N)C(O)c1ccccc1 (stereo not drawn) [phenylpropanolamine]
- Apparent Dose [1, 11]: 41 ng/mL
- Rate [1, 11]: 185.8 MAU/min

Compound: CN[C@@H](C)[C@@H](O)c1ccccc1 [pseudoephedrine]
- Apparent Dose [1, 10]: 10 ng/mL
- Rate [1, 10]: 166.6 MAU/min

Compound: (±)ephedrine
- Apparent Dose [1, 11]: 47 ng/mL
- Rate [1, 11]: 189.7 MAU/min
